In paper doi:10.1101/116277:
Results are given in words; binding and its absence hold for the method and conditions named. Binding seen in cells or lysates may run through a third protein. A yes stands for co-enrichment or nearness to the bait. Other partners may have been found. For part of these data: Tags and fused reporters may be left off the sequences shown. Each block holds one molecule with its values, some of them ahead of it.

By UniProt entry, the sequences of proteins in these tests, tags left out. Where a name states a change or a piece, a line headed by the entry shows the natural chain unless it says otherwise. Chains listed by the source or under a name are the forms on record and can include a tag or linker.
GFP-Nup185 (I7MFN0, form named): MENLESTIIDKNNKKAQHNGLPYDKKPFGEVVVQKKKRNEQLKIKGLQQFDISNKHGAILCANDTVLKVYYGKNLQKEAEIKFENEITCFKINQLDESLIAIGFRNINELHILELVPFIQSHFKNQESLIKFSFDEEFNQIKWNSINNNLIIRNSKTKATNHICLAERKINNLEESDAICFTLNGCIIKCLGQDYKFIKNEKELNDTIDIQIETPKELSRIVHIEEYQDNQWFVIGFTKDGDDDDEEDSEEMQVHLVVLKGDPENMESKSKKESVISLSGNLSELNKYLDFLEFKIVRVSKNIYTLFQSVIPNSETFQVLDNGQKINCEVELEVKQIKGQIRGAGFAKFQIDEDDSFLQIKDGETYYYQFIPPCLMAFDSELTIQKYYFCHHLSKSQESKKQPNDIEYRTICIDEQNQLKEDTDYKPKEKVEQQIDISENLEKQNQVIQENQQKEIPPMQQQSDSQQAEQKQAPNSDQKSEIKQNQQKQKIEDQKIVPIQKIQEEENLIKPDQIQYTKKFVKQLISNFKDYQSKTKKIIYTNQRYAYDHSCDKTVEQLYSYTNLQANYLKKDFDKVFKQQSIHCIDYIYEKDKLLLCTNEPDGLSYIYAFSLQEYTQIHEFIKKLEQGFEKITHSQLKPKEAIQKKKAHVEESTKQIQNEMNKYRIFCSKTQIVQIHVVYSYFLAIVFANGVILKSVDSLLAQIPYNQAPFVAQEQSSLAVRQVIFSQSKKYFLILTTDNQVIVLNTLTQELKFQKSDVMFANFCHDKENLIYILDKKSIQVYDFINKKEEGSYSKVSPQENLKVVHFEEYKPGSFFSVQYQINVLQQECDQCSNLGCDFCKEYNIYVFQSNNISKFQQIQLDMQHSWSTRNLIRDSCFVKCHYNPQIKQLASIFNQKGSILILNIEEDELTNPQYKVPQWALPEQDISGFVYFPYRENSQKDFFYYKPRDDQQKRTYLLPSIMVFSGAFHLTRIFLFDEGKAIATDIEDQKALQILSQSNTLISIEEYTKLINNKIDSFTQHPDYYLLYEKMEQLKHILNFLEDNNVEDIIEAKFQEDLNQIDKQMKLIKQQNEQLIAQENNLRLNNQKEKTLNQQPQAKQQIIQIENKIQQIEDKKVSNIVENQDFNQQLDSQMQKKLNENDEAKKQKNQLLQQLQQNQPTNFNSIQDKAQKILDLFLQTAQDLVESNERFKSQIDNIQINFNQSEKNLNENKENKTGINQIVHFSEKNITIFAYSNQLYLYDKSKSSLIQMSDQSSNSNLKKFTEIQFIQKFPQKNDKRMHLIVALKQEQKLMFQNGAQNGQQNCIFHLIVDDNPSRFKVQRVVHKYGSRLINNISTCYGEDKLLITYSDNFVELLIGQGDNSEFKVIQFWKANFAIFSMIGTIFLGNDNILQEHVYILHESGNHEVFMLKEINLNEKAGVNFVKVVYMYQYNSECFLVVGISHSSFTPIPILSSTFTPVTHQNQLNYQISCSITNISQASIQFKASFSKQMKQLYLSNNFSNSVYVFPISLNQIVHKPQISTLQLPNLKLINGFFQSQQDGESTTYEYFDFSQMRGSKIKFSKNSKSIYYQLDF
UniProt Q236D1: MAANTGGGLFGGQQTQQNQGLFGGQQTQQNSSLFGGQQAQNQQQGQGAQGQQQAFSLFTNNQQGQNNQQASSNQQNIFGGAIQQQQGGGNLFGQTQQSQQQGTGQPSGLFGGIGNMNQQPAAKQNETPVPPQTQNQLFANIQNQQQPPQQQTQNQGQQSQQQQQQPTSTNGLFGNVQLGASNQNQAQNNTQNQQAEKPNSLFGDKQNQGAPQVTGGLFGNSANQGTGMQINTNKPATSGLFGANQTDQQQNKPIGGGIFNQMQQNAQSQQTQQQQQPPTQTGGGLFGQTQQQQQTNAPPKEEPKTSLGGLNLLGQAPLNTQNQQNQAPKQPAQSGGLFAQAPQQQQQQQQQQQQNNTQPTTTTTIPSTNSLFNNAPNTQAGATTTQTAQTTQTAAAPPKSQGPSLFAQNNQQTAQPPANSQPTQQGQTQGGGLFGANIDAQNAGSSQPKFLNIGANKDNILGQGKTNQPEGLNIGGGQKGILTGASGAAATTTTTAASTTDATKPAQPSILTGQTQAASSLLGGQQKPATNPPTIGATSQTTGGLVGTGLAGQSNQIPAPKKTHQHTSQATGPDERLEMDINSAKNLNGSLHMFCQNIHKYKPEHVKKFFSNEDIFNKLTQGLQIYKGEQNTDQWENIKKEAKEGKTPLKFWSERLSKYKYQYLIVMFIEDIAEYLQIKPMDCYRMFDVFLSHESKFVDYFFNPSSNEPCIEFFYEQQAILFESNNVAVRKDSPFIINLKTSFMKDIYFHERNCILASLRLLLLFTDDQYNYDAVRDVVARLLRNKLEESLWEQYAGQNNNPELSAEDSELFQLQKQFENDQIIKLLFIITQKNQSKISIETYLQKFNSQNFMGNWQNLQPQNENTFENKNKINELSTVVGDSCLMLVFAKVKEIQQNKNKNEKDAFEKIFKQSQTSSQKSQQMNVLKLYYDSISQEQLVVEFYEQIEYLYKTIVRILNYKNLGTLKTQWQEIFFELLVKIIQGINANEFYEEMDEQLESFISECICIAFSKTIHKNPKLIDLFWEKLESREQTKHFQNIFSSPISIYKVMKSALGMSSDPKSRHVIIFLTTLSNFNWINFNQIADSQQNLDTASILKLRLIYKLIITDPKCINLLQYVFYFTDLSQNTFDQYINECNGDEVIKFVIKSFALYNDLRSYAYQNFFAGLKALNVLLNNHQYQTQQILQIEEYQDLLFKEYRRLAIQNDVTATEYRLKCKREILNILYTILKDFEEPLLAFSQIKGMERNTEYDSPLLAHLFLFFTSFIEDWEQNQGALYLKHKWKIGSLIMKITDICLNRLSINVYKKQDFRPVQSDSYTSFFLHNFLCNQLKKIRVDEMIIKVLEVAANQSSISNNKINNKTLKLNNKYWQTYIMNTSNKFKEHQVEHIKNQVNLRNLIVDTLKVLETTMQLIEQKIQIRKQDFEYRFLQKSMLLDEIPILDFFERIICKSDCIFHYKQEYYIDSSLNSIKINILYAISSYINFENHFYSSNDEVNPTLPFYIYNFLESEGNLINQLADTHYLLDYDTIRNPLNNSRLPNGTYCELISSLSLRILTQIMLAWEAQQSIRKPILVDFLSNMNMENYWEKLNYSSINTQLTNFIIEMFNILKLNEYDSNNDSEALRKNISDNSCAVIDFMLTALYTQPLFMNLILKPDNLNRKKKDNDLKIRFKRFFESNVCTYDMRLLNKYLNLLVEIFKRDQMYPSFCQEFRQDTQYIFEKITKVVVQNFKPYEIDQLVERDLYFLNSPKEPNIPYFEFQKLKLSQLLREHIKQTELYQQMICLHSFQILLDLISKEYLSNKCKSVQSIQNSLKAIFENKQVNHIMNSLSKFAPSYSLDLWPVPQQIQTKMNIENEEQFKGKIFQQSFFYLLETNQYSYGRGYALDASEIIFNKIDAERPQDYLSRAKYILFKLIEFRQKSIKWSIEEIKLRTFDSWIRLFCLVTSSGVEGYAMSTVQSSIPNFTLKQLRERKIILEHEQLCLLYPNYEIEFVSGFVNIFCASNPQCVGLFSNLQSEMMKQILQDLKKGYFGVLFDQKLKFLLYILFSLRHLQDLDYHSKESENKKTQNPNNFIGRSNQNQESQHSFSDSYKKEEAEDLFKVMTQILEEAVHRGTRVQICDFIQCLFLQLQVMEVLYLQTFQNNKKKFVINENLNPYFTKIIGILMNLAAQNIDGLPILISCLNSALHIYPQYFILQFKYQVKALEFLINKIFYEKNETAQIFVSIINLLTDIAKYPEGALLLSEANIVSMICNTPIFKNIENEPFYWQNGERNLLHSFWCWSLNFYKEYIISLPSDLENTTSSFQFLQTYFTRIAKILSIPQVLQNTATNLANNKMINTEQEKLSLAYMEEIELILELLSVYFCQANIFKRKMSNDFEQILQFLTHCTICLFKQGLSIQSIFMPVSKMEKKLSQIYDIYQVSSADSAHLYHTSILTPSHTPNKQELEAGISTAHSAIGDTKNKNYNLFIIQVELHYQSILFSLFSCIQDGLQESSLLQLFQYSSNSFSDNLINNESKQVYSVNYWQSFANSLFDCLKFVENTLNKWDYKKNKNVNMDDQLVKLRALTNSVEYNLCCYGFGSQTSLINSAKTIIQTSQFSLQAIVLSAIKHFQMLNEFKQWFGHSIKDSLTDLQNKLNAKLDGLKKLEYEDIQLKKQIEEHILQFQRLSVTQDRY

Experiments:
[1] = target: T1, GFP-TtNup93 (Tetrahymena thermophila) (UniProt Q241A4); assay: affinity purification with mass spectrometry
T1 sequence: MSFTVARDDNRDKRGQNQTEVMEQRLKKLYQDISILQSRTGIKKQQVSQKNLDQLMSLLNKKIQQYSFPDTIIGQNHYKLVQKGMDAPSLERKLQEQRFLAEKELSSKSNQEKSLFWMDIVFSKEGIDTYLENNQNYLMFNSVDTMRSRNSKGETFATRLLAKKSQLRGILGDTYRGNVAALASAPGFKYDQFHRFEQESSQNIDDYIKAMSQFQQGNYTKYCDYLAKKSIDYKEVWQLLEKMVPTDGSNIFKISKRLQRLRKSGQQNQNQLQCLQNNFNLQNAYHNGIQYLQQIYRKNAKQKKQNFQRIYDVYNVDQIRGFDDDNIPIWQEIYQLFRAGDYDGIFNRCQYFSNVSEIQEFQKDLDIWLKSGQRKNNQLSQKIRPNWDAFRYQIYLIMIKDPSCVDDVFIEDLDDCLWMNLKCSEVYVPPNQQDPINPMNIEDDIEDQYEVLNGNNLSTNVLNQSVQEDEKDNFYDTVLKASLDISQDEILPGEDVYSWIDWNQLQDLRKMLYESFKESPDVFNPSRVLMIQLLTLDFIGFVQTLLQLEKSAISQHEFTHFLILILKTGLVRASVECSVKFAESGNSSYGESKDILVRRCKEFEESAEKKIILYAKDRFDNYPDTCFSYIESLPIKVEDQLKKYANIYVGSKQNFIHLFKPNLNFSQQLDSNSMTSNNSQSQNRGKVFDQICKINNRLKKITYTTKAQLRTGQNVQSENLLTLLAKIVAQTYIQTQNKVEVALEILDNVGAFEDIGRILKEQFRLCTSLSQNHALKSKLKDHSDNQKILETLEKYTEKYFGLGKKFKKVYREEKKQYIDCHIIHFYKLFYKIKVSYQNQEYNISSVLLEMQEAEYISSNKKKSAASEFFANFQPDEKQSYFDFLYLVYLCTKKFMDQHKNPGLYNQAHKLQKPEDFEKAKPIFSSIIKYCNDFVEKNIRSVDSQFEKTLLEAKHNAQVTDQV

[2] = target: GFP-Nup185 (Tetrahymena thermophila) (UniProt I7MFN0); assay: affinity purification with mass spectrometry

- binding [1]: binds
Molecule: Nup308 (from UniProt Q236D1 1-2675)

- binding [1]: binds
B1: TtNup58 (protein, UniProt Q23K55 1-390)
chain: MSLFNQNQGVQIGGQKPGGLFQTTTTGQQGGGLFNNQPSLQLGGNQTGGLPVFGGNQQPAAGGTIFNNPIGQQAPAQGQGGIFANQKPIVQNQTQTNNQQQIQHTVQSQTWKEAKQLYQQLQNVKKEQISIERDVNVSDNNNIYAHKPVNILPKEFFDELTNINKDIQKTEQDVAKLVDSQRELFNQIQETRKVIQQSSLSLKQTAQQVKDIQETVNELITEQQDQKQYITNFFYTFTNYLENHQFPRLILPQPFIIKAQEKFQLKLEKLQRQIDEVEQMLQVEIQKRNDEEELAFIFVIVEQLFKYFNNVTALVYEFHKHYESFRMKIVHIQDQREFGFASDLNESTKQSLNEENRYFKLLSNISDNLEKQIRKHEEEQQIKQPNEKRI

- binding [2]: binds
B2: TtTpr (protein, UniProt I7ME84 1-1392)
chain: MDSNQAADQEKQVEAQNEEQKQEQENNEQKENESEQAQTDPQISSGSNQKFDIEITDEDNDPEIENNQTIEQMKFKAYDLKAELKKVGNLAEELKVKFANLETDYDQCKDEKEELEKKYKQSIEKYGEMMKNYEHQIISLENENNIRIQQLQQQIDELKKQNEEKEQSYLNMQQQIKQDKQSFDDIQNKYEEINKHNQEQFKQNSDQWVKLVNLTEEVIFNFYNSNFFTENKDDISSQTHIILQHQQTFQQLIEKYVTFLAEQKEKNEAISDEAFNKIKSENGNGVQKTNQRVQDLQQKFEAYQQQFNKLNSESQENETKLQETKKQLEDLQNELGNKNNQIQELNEQHQKSQTEIQKLNEQITSNQQRIEELQKNENILVEKDKNINEIKEQLSALNQQIEGFKDIQNKLDTKTEEFEKLEKDFNQQKSELEEKIKSKDEEIENLSKKIQDIVEQQQEKQKQLDDLNSNLQNSNKENEQLKQEINDFKNKINNSNQDQEQQSNQLKAELKQTQEQLNDSQQKFEQADKELKDLKQQIEDEKVKLNDKSQESENLKDQLKSANEKLNESQQKLEQIQKNFDDLKQNNDLQKIVDEKQQKCEELERELKELKTQQEQVTAQVQQLNVEKEEIQTKFNQVEQEKEQLKKQEQEKIDLLSQAKQEKENNEQEINNLKQTIANLEKERTDIQIQSQEKDKQLDDAKHTLENLNKEIEQLKNQNQAIGDVNEKNKQLESEITQIKSEIEQKNTEIQSLNSKNETEISEKKQQLEDHTKQVNQLNEQIHQLSTENENLKNEIQTNQNISQTKLTDLNSEIEGFQKEIEETKLQLDDKNTQLKGLQVKLEALEKQLLEKNEEIQKVNQQLKESEQKHEAIQKQNEELQNSLKTLEEKDYNQIQNDLNQQVSDLKQKEQDLNKQLDQKLQEINQIKQQLSNETSDFMKKNVQLQQTIQQLNQTISQYQEQIERIKTDLYQSQQEKSQLQSKLNEANREIQNKEDDLNKKVEIIAELEQNNKDLKINLHNYEVKSYDLDKERFDVLEIQIQHNKEQQVQYKQAEEKIQKLEEEIKKLLADKTDSLEKLQKEIKTEQVIGEEMSKKFRSNLAELQINNEQNSLENSQKTINQLAEVVLRKVKDCFYSSTKIVQISRLFYDGSDGRNASQDNALSLIQELNEAQHASITIHKLLGFEYKKFKNILPIQYLRNDFKVINQTENTTQPLYVNENDQVAQYAIVNYEIQNNKFYVGLIQFDVVSTYFRVGFVPVNPQTKQEQWGEAIYANFCLNHEAANSKNYRNLVRINHFNPIFSIKKGYIYIRFNIQKNIFQFCDTNYQLSELSKCQFKSDLHYKLFIGMKETKGHFQIVDLKEQSRDEDINIMTQIFSNEQPQFEDLIRLFI
